Source: article PMC10573631
Numbering of substitutions follows the chain as printed. No constants are given. Whether binding was seen depends on the method and setting. In cells and extracts the contact can be indirect. Some binding calls cover weakened binding; strength is not graded here. Sequences can lack the tags named with a protein.

By UniProt entry, the sequences of proteins in these tests, tags left out. Residues count along the entry.
UniProt P30530, residues 26-894: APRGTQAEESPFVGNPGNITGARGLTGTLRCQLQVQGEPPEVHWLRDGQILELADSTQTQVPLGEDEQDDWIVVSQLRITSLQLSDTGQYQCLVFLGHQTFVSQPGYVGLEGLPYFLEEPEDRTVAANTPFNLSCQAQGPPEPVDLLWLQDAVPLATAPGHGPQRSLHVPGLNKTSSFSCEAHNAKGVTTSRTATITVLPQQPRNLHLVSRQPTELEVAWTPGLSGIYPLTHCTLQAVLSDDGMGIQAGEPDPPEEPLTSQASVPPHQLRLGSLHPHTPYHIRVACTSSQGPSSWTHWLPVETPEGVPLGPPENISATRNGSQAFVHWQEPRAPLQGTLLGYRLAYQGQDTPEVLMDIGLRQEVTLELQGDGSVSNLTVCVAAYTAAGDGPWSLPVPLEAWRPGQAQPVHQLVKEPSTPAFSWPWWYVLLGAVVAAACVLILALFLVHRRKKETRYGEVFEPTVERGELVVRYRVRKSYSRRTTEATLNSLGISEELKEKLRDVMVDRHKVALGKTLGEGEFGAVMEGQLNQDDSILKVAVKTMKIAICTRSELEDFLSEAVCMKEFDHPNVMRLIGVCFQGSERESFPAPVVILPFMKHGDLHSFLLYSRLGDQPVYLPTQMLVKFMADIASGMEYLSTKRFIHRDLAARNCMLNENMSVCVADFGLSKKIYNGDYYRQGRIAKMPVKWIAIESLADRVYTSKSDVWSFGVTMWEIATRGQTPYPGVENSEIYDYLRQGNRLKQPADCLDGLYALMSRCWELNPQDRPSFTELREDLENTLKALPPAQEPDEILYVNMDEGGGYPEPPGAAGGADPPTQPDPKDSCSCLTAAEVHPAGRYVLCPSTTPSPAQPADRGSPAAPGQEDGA

Columns and labels:
[1] = molecular target: T1, MIG6-MT1 (Y394F/Y395F)-Flag (human) (UniProt Q9UJM3); experiment: co-IP; 293TN cells transfected with AXL and/or EGFR and MIG6-Flag variants, lysates 72 h after transfection; IP with anti-Flag antibody and Protein G Mag Sepharose overnight at 4 C in IP buffer (Tris 50 mM pH 7.4, EDTA 5 mM, NaF 50 mM, Na3VO4 0.1 mM, Triton 1%); Western blot for AXL, EGFR, MIG6
T1 sequence: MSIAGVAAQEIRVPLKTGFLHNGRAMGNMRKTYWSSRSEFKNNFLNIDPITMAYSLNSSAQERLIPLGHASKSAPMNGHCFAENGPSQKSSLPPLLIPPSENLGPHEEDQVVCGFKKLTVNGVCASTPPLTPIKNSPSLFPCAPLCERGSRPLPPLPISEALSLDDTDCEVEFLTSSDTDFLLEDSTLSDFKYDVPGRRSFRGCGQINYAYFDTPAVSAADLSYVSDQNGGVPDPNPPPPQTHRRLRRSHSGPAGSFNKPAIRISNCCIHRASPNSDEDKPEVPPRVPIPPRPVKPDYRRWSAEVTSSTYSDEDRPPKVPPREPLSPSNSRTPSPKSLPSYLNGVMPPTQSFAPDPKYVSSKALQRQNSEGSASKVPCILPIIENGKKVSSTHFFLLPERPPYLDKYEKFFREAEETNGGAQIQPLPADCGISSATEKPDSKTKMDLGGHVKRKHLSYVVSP

[2] = molecular target: T2, MIG6-MT2 (Y310F)-Flag (human) (UniProt Q9UJM3); experiment: as above
T2 sequence: T1 sequence with Y310F, F394Y, F395Y

binding [1]: binds weakly
binding [2]: binds
Substance: AXL (pcDNA3-AXL, expressed in 293TN cells) (from UniProt P30530 26-894) (receptor)
